Laboratory results published in paper PMC8799692.

Amino acid sequences for entries named in this document (tags omitted).
UniProt P09405: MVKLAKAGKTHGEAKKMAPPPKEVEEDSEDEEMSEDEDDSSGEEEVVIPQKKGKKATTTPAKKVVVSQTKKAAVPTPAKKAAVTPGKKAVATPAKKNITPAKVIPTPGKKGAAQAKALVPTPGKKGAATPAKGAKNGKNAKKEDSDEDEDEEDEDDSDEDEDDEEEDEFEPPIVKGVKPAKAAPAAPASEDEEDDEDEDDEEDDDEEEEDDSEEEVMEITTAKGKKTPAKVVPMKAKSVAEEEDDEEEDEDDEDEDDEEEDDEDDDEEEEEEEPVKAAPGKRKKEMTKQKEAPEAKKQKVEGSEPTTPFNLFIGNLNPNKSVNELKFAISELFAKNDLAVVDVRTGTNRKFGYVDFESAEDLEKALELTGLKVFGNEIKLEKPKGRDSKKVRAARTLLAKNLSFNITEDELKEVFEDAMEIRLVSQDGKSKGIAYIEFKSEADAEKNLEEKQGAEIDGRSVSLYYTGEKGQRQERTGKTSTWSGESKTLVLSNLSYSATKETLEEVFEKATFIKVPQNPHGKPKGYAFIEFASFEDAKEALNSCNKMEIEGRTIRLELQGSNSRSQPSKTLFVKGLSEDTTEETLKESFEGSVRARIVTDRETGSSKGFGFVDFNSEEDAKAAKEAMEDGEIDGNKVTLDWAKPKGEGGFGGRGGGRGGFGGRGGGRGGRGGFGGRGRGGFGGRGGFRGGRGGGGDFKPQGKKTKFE

Target: T1, ARAF (mouse (endogenous in NRAS-mutated murine melanoma cells)) (UniProt P04627)
T1 sequence: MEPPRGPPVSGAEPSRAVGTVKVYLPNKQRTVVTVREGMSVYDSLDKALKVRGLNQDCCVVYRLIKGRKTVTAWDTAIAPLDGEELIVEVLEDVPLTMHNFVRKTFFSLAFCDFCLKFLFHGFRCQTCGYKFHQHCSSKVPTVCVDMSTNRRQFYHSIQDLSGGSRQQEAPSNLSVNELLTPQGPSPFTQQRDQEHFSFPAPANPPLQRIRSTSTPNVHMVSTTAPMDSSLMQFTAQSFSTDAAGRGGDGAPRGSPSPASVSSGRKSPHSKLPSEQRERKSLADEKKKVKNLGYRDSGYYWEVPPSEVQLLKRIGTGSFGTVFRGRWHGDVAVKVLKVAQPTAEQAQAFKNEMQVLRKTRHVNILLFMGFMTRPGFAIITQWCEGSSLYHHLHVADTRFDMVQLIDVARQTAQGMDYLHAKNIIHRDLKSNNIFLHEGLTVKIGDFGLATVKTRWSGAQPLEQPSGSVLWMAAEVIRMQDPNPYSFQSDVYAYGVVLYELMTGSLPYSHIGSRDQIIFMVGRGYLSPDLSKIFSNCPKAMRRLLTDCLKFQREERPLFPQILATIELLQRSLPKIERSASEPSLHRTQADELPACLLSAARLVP
Assay: affinity purification with mass spectrometry; endogenous ARAF immunoprecipitated (ARAF antibody, protein-A magnetic beads, 4 °C, 4 hours) from 1 mg NP40-buffer lysate of ARAF-only cells against control cells with shRNA against ARAF; label-free quantification

Row | Substance | binding
1 | Microphtalmia-associated transcription factor (MITF) (from UniProt Q08874-8) | binds
2 | NCL (from UniProt P09405 1-707) | binds
3 | PARP | binds

These are yes or no findings as the source states them, for the method shown. In cells and extracts the contact can be indirect. Here binding means that the protein was enriched with, or labelled near, the bait; the list need not be complete.
